## Screening data, single-dose tests

Data taken from ChEMBL document CHEMBL3988442, “University of Dundee, Small-Polar-MMV Screening Library” (2021).

Mtb glucose medium: 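Growth of Mycobacterium tuberculosis over 3 days (7H9 medium with glucose and tyloxapol); the read-out is not stated. Compounds at 50 µM. The record gives no direction; compounds that gave an IC50 in retests scored well above the rest, so higher reads as more growth inhibition. About 69,000 compounds were tested under these conditions; 1.1% (about 760) showed 50% or more at least once.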
Mtb cholesterol medium: 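Whole-cell growth test on Mycobacterium tuberculosis, read after 4 days in a medium based on cholesterol and the lipid DPPC; the read-out is not stated. Tested at 50 µM. Direction is inferred from retests: higher values go with more growth inhibition. Size under these conditions: about 69,000 compounds, about 370 of them at 50% or above in at least one test.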

Each number is a percent effect as filed.
How 0% and 100% were set is not recorded. Most values in the screen are low, and negative values occur.
Compounds were drawn at random from those tested, without regard to their results.
Two or more numbers in one place are separate tests of the same structure; such repeats can differ widely.

Compound | Mtb glucose medium | Mtb cholesterol medium
CCn1nnc2c1C(COCC(=O)N(C)C)CN(Cc1ccco1)C2.O=C(O)C(F)(F)F (stereo unspecified) | -32.1 | 0.2022
[H][C@]12CCN(C(C)=O)CC[C@@]1([H])S(=O)(=O)N(CCOC)C2 | 0.6628 and -17.06 | 6.391
CC(C)(C)CC(NC(=O)N1CCS(=O)(=O)CC1)C(F)(F)F (stereo unspecified) | 25.92 | -4.015
[H][C@@]12CN(C(=O)NC3CCCCC3)C[C@]1([H])OCCN2C(=O)c1ccco1 | 0.8668 and 19.47 | -3.752
Cc1cnc(N2CCc3c(CN(C)Cc4ccco4)cncc3C2)nc1 | 18.92 | 4.447
CC(=O)c1ccc(Cl)c(Cl)c1OCC(=O)NC(C)C | -19.12 | -22.35
CCn1nccc1CNc1[nH]cnc2nncc1-2 | 8.803 | -15.27
O=C(NC1COC2(CCN(Cc3ccccn3)CC2)C1)c1ccccn1.O=C(O)C(F)(F)F (stereo unspecified) | 3.093 | 10.22
COCC1CN(C(=O)Cc2cccs2)Cc2c1cnn2C (stereo unspecified) | -19.3 | -27.77 and -10.26
CCc1nc(C2CCCN(C(=O)C(C)(C)NS(C)(=O)=O)C2)no1 (stereo unspecified) | 11.11 | -8.617
CCN(Cc1cccc2c1OCO2)C(=O)Nc1ccncc1 | 28.21 | 22.9
CCSCCn1c(=O)n(Cc2ccc(F)cc2)c2ncc(C(=O)O)cc21 | -3.118 and -29.44 | 21.38 and 5.858
CC(C)N1CCc2c(c(COc3cncnc3)nn2CC2CC2)C1.O=C(O)C(F)(F)F | 27.69 and -2.008 | 27.38
O=C(O)C(F)(F)F.[H][C@@]12COC[C@]1(CNC(=O)c1ccsc1)CN(Cc1nccs1)C2 | -6.431 | -31.18
CN(Cc1nc(CC2CC2)no1)CC1COc2ccccc2O1 (stereo unspecified) | 24.88 | 43.67
Cc1nn(C)c(C)c1CN1CCCC1c1nccc(CN(C)C)n1 (stereo unspecified) | 7.998 | -12.9
[H][C@@]12CN(Cc3ccccn3)C(=O)N1CCN(C1CCN(C(C)=O)CC1)C2 | 4.612 and 12.62 | 0.3568
CC(=O)c1ccc(OCC(C)O)cc1O (stereo unspecified) | -1.006 | -8.215
CC(CCS(C)(=O)=O)NC(=O)NCc1ccc2ccccc2c1 (stereo unspecified) | -3.453 | -12.31
CCn1cc(CN2CCCN(C(=O)Cc3cccs3)CC2)cn1 | 21.29 | 1.596
Cc1nc(CN2CCC23CCN(Cc2ccoc2)CC3)cs1 | 47.52 | 9.831
COc1ccccc1CC(=O)N1CCC(NCc2ccc(C)o2)CC1 | -16.25 | 8.996
O=C(C1COc2ccccc2C1)N(CCO)Cc1ccccc1 (stereo unspecified) | -20.45 and 1.057 | 3.127 and -15.82
CN1CC(Oc2ccccc2)=NC(SCC(=O)c2ccccc2)=N1 | -7.676 | -13.22
O=C(CC1CC1)N1CCC2(CC1)CN(CCn1cccn1)C(=O)CO2 | -37.18 and -2.379 | -19.5
O=C(CN1CCCC1Cn1cncn1)Nc1nncs1 (stereo unspecified) | -12 | -12.25
Cc1cnc(N2CCOC(C(=O)NCc3ccccc3)C2)s1 (stereo unspecified) | 12.04 | 16.72
CCC(C(=O)NCc1ccncc1)N(c1cccc(Cl)c1)S(C)(=O)=O (stereo unspecified) | -27.18 | 12.5 and 2.09
Cc1nsc(C(=O)NCCc2ccc(F)cc2)n1 | 57.66 | 53.63
CCOCCNC1(c2ccc(Cl)cc2)CCOCC1 | -9.395 | -22.68
Cc1n[nH]c(C2CN(CCNC3CCCCC3)CCO2)n1 (stereo unspecified) | -33.25 | -20.54
Cc1ccc(CNC(=O)N2CCN(C(C)c3cccnc3)CC2)cn1 (stereo unspecified) | 5.823 | 1.139
Cc1cc(C(N)=O)c(N2C[C@@H](C)[C@@](C)(O)C2)nc1C | 22.7 and -1.447 | 17.88
COC1COC2(CCN(Cc3ccco3)CC2)C1 (stereo unspecified) | -7.093 | -6.453
Cn1nccc1CCC(=O)N1CCCC(Cc2cccnc2)C1 (stereo unspecified) | 30.91 | 5.556
CCN(CC)CCNC(=O)c1ccc(Cl)c(NS(C)(=O)=O)c1 | -21.2 | -19.71
CCN(Cc1ccncc1)C(=O)C1COc2c(cccc2OC)C1 (stereo unspecified) | -22.62 and -0.4175 | 3.204
[H][C@]12CC[C@](O)(CC1)C(CN1CCOCC1)N2C(=O)C1CCC1 (stereo partly specified) | -27.26 | -27.86
CN(C)c1ccc(-c2noc([C@@H]3CCCN3)n2)cn1 | -28.65 and -4.226 | -0.345
COc1cc(CNC2CCCN(c3cccnn3)C2)cc2c1OCO2 (stereo unspecified) | -19.91 and -5.435 | -6.429
CS(=O)(=O)N1CC2(CCN(C3COC3)C2)Cc2ccccc21 (stereo unspecified) | 26 | -8.236
O=C(c1cn(CCN2CCCCC2)nn1)N1CCCO1 | 12.41 | 3.496
COCCCNC(=O)c1cc(-c2ccc(OC)cc2)nn1C | 23.67 and 9.465 | 18.72
O=C(O)c1cn2cc(C(F)(F)F)ccc2n1 | -0.8254 and 18.33 | -21.43
O=C1CCC(CCC(=O)N2CCC2c2cccs2)=NN1 (stereo unspecified) | 2.033 and -2.608 | 7.857
CCc1nnc(CN(CC)C(=O)C(C)n2ccnc2C(C)C)o1 (stereo unspecified) | -0.4145 and 11.07 | 6.986
O=C(c1ncn2c1CNS(=O)(=O)c1ccccc1-2)N1CCCCCC1 | -16.73 and -4.452 | -19.26
Cc1nc(C)n(CC2CCCN2CC(=O)Nc2cc(C(C)C)no2)n1 (stereo unspecified) | 4.231 | 10.21
CCn1cnnc1CNC(=O)c1cc(Cl)ccc1OC | -15.51 | -9.233
Nc1ccc(C(=O)N2CCCC(C(=O)CCc3ccccc3)C2)cn1 (stereo unspecified) | 12.02 | 23.07
CCc1c(C)sc2ncnc(N3CC[C@@H](N4CCOCC4)[C@H](O)C3)c12 | 50.45 | 4.462
Cc1csc(N2CCCN(CCC(=O)NC(N)=O)CC2)n1 | 77.5 | 19.93
Cc1ccc(CN2C(=O)CC[C@]23CC[C@@H](NC2CCOC2)CC3)cc1.O=C(O)C(F)(F)F (stereo partly specified) | -7.761 | 2.093
CCN(Cc1ccc2c(c1)OCO2)C(=O)NCc1nc(C)cs1 | 13.34 | 12.42
[H][C@]12CCN(C(=O)Nc3ccccc3C)CC[C@@]1([H])S(=O)(=O)N(CC)C2 | -24.91 | -13.73

For reference, 4 entries once more:

- Cc1nn(C)c(C)c1CN1CCCC1c1nccc(CN(C)C)n1 (stereo unspecified) : Mtb glucose medium: 7.998%; Mtb cholesterol medium: -12.9%
- COCC1CN(C(=O)Cc2cccs2)Cc2c1cnn2C (stereo unspecified) : Mtb glucose medium: -19.3%; Mtb cholesterol medium: -27.77% and -10.26%
- [H][C@]12CCN(C(C)=O)CC[C@@]1([H])S(=O)(=O)N(CCOC)C2 : Mtb glucose medium: 0.6628% and -17.06%; Mtb cholesterol medium: 6.391%
- O=C(c1ncn2c1CNS(=O)(=O)c1ccccc1-2)N1CCCCCC1 : Mtb glucose medium: -16.73% and -4.452%; Mtb cholesterol medium: -19.26%